## Library screen at single concentrations

The values are deposited in ChEMBL (CHEMBL3988442, “University of Dundee, Small-Polar-MMV Screening Library” (2021)).

Mtb glucose medium: 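Whole-cell growth test on Mycobacterium tuberculosis, read after 3 days in glucose-containing 7H9 medium; the read-out is not stated. Concentration: 50 µM. The record gives no direction; compounds that gave an IC50 in retests scored well above the rest, so higher reads as more growth inhibition. About 69,000 compounds were tested under these conditions; 1.1% (about 760) showed 50% or more at least once.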
Mtb cholesterol medium: 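Phenotypic screen: M. tuberculosis growth, cholesterol and DPPC medium, 4 days; the read-out is not stated. Tested at 50 µM. Higher reads as more growth inhibition (inferred: compounds with an IC50 in retests scored well above the rest). About 69,000 compounds were tested under these conditions; 0.54% (about 370) showed 50% or more at least once.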

Each number is a percent effect as filed.
The record does not define 0% and 100%; most values in the screen are far below 50% and negative numbers occur (in some assays of this library far below -100).
This is an unselected part of the compounds tested.
Two or more numbers in one place are separate tests of the same structure; such repeats can differ widely.

O=C(O)C(F)(F)F.[H][C@@]12OCCN(S(=O)(=O)CC)[C@@]1([H])CC[C@H]2Oc1ncccc1F read Mtb glucose medium: 33.21%; Mtb cholesterol medium: 8.86%. Cc1ccnc(C(NC(=O)c2sc(C)nc2C)C2CC2)n1 (stereo not drawn) gave Mtb glucose medium: 28.27%; Mtb cholesterol medium: -3.275%. With O=C(CCC1CCCCO1)NCc1cnn(-c2ccc(F)cc2F)c1 (stereo not drawn) the screen gave Mtb glucose medium: -11.52%; Mtb cholesterol medium: -25.98%. CCCc1n[nH]cc1C(=O)N1CCCC(c2nccn2CC2CC2)C1 (stereo not drawn) read Mtb glucose medium: -1.972% & -0.1652%; Mtb cholesterol medium: -9.501%. CC(C)(C)OC(=O)NC1CCCN(Cc2cccs2)C1 (stereo not drawn) read Mtb glucose medium: -20.02%; Mtb cholesterol medium: 5.009%. O=C(c1ccc2[nH]ccc2c1)N1Cc2nc(CN3CCCC3)oc2C1 read Mtb glucose medium: 4.273% & 7.025%; Mtb cholesterol medium: -5.172%. Result for CN(CC(=O)NC(C)(C#N)C1CC1)Cc1nc2ccccc2n1C (stereo not drawn) was Mtb glucose medium: -2.37% & -15.13%; Mtb cholesterol medium: -14.93%.

For CCc1nc(NC(=O)NCCc2cccc(C)n2)nn1C the result was Mtb glucose medium: 25.74%; Mtb cholesterol medium: -2.383%. CC1=NN(c2ccc(C(=O)OCCNC(=O)c3ccncc3)cc2)CC1 gave Mtb glucose medium: 6.479%; Mtb cholesterol medium: 7.369%. CN(C)CCN(CC1CCCO1)S(=O)(=O)NCc1ccccc1 (stereo not drawn) gave Mtb glucose medium: -21.4%; Mtb cholesterol medium: -2.528%. For CC(=O)N1CCC2(CC1)C(=O)N(CC1CC1)c1ccccc12 the result was Mtb glucose medium: 5.09%; Mtb cholesterol medium: 6.43%. For O=C(NCc1ccccc1F)N1CCCCC1C1OCCO1 (stereo not drawn) the result was Mtb glucose medium: -2.967%; Mtb cholesterol medium: -20.13%. With Cc1csc(N2CCC(CCN3CCCC3=O)CC2)n1 the screen gave Mtb glucose medium: 3.737%; Mtb cholesterol medium: 5.011%. With Cc1cn2c(n1)CCC(NS(=O)(=O)c1ccc(C)s1)C2 (stereo not drawn) the screen gave Mtb glucose medium: -1.293% & -0.6772%; Mtb cholesterol medium: -7.054%.

CC(C)n1c2ccccc2c2c1cc(C(=O)NCCO)n2C(=O)N(C)C read Mtb cholesterol medium: -39.51%. CC(C)CN(C)S(=O)(=O)c1ccc(Cl)cc1C#N gave Mtb glucose medium: 7.802% & 16.08%; Mtb cholesterol medium: -7.483%. For Cc1ccc(CNC(=O)c2ccc(=O)n(C)n2)c(OC2CCCC2)c1 the result was Mtb glucose medium: 7.018%; Mtb cholesterol medium: 6.216%. CN(Cc1ccco1)C1CCC12CCN(C(=O)N1CCCC1)CC2.O=C(O)C(F)(F)F (stereo not drawn) gave Mtb glucose medium: -14.85%; Mtb cholesterol medium: -7.387%. With CCN(CC)C(=O)CN1CCCC1C(=O)N(C)C (stereo not drawn) the screen gave Mtb glucose medium: 1.106% & -5.813%; Mtb cholesterol medium: 0.4551%. CCCc1noc(CCC(=O)NC(C)c2nnc3n2CCCCC3)n1 (stereo not drawn) gave Mtb glucose medium: -4.723%; Mtb cholesterol medium: -22.47%. CCNC(=O)c1cn(C(C)(C)C)c2ncccc12 read Mtb glucose medium: 12.02%; Mtb cholesterol medium: -7.771%.

Result for Nc1nonc1C(=O)N1Cc2ccccc2OC2(CCOCC2)C1 was Mtb glucose medium: 15.42%; Mtb cholesterol medium: 8.685%. CC(C#N)CN(C)Cc1cc(Cl)cc2cccnc12 (stereo not drawn) read Mtb glucose medium: 21.62%; Mtb cholesterol medium: 13.65%. CC(NC(=O)N1CCNC(=O)CC1)c1ccc(C(F)(F)F)cc1 (stereo not drawn) read Mtb glucose medium: 15.57%; Mtb cholesterol medium: -5.695%. For CCN(Cc1ccc(N(C)C)cc1)S(=O)(=O)c1cc(Br)ccc1OC the result was Mtb glucose medium: -31.8%; Mtb cholesterol medium: -10.04%. Cc1cccc(CN2CCC(c3nnc(-c4scnc4C)o3)CC2)c1 read Mtb glucose medium: 20.97%; Mtb cholesterol medium: 6.665%. Result for [H][C@@]12COC[C@]1([H])[C@H](NC(=O)c1cccn1C)CN2S(C)(=O)=O was Mtb glucose medium: -0.2899% & -4.71%; Mtb cholesterol medium: 10.28%. For Cc1ccc2c(c1)C1(CCN(C(N)=O)CC1)CN2CC1CC1 the result was Mtb glucose medium: 10.25%; Mtb cholesterol medium: 7.606%.

COC(=O)C1CCCCN1C(=O)c1ccc(N(C)C)cc1F (stereo not drawn) read Mtb glucose medium: -1.116%; Mtb cholesterol medium: 11.79%. Result for COc1cccc(-c2nc(C)c(C(=O)N[C@H](CO)CC(C)C)s2)c1 was Mtb glucose medium: 3.04%; Mtb cholesterol medium: -0.3552%. With COCC1c2nnn(C)c2CCN1C(=O)c1ccc(OC)c(F)c1 (stereo not drawn) the screen gave Mtb glucose medium: 9.549%; Mtb cholesterol medium: 6.506%. Cc1ccc2[nH]c(CO[C@H]3CN(C(=O)C4CC4)C[C@H]3F)nc2c1 read Mtb glucose medium: -22.3% & -2.804%; Mtb cholesterol medium: -16.43%. CCCn1c(=O)n(CCC(=O)N(C)Cc2ccc(C)o2)c2ccccc21 gave Mtb glucose medium: 10.07%; Mtb cholesterol medium: 8.637%. For CN(C)C(=O)N1CC2(CCN(CC3CC3)CC2)c2cc(F)ccc21.O=C(O)C(F)(F)F the result was Mtb glucose medium: -35.76%; Mtb cholesterol medium: -12.89%. For Cc1nc(-c2c(-c3ccccc3)ncn2CCCN2CCOCC2)c[nH]1 the result was Mtb glucose medium: -7.751%; Mtb cholesterol medium: -4.111%.

COCCS(=O)(=O)Nc1cc(Cl)ccn1 read Mtb glucose medium: -23.64%; Mtb cholesterol medium: -14.45%. For Cc1ccccc1OCC(O)C(=O)N1CCC2(CC1)CN(C)C(=O)O2 (stereo not drawn) the result was Mtb glucose medium: -25.05%; Mtb cholesterol medium: -9.692%. With CC[C@@]1(O)CCN(C(=O)c2ccsc2)C[C@H]1O the screen gave Mtb glucose medium: -14.12% & -6.088%; Mtb cholesterol medium: -20.01%. Result for CCS(=O)(=O)N[C@H]1CN(CC(C)(C)N2CCOCC2)C[C@@H]1C1CC1 was Mtb glucose medium: -8.114% & 0.2155%; Mtb cholesterol medium: 22.66%. With CC(=O)N1CCCN(C(=O)NCc2ccc(-c3ccn[nH]3)cc2)CC1 the screen gave Mtb glucose medium: -18.37%; Mtb cholesterol medium: 5.629%.